Experimental data as given in PMC9346556.

T1: PbLRR1-mCherry (endogenous PbLRR1 fused to a C-terminal mCherry tag) (P. berghei)
T1 sequence: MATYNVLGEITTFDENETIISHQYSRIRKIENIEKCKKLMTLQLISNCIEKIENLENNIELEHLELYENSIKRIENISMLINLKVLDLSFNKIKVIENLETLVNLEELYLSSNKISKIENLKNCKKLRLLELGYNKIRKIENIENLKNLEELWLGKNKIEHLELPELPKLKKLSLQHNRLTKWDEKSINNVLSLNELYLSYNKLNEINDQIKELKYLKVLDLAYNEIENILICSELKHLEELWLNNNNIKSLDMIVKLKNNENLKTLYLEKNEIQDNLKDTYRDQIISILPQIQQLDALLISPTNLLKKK


Columns and labels:
[1] = biological target: T1, PbLRR1-mCherry (endogenous PbLRR1 fused to a C-terminal mCherry tag) (P. berghei); test: affinity purification with mass spectrometry; RFP-Trap beads on soluble extracts of zygotes of the PbLRR1-mCherry line, parental wild type as control; three biological replicates; t-test, FDR < 0.01, S0 = 1
[2] = biological target: T1, PbLRR1-mCherry (endogenous PbLRR1 fused to a C-terminal mCherry tag) (P. berghei); test: affinity purification with mass spectrometry; RFP-Trap beads on soluble extracts of activated gametocytes of the PbLRR1-mCherry line, parental wild type as control; three biological replicates; t-test, FDR < 0.01, S0 = 1

binding [1]	binding [2]	Binder
binds	binds	PBANKA_1420100 (protein, UniProt A0A509AQ80 1-993) MDRIKTEVAFLIYNLEFGKLKNNHQSYVINELNRKINKYTSFILDSSYKHVNNFSYSTNIFHYFYKVTEYYILKYFNSIIVDSIFYFKCINDLKNKSHCGAQNDESKLYKCIYKEKNEKMLENWNNNDSNYYTFDYQVLTNFIQNLKKLYEKNNCVASNAGGKNITKAKDSEKTTRQKNDDNNATKPEKCNNKNEDRQNNENEIKNASESFKFGKTFIYAICEINNSLYNKKNRMICITKIFRKIVNKKKMRKYICENDKMAKKMYLKFILNLSLGIFIYLYMYRYIKKKYKNIDFFIFLNNLKNIRQIYSNNTSYFEKQQIISFIKYIKFINIQMFQYAYISFFVNIYKYINLIHNTTLVTLYYYFKKINKKHKWKIKLIKKKDGKNSGHQNNDPYEYFIIEHDGKQKCNESYCHDNKNVCDKEFVYNQNISNEIGQIEKEKGVKNENVGKNVTKNLEFPQSDNANLNTKNINTKLINDINNKRAIEIGLSGSYDYNNNKQCNIGFNWVEIKKESILSMKNNINGINEIIFDNYIYVFIFYKYIRNIKKSMKYNITKIQSNIKKMIHLFINICKTNNDENNKMEQKMPLSMNTEDTKNISNNILGDQECNNNYINDSTQFLIYFKYIELCKYYKSCIKINYEIIKSVHTFHILLTHFFKYFPVLNFKKGNCIIYNYYDKSYIYKEQASNENIDTKKAGKVNKECFFDIFKNVKDYEIDFLYFNEYQKKKDDVDETLQSIEENNQVESFSEVFHIDDNTNFDSTNLSQNNFTKENINDHENTDNNYSNGYIEGLKKIFLYCINNNLNDFLISVNMEENFQIKRDTSENEKNISIINQNKGDELVKKCRSDSILEILKTNKALYSKILEIIEGFSKGMSNIIQNYEYDLNRYSKKVLDIYDNNVFDIHYKISNQNTIESEEEVKNKKLLEVKIFLDYKKLYNKKTVETQTPVSFFKNDKAIQIAKDTETITISEQFIQTRKNNNPIFYLSDIYS
	binds	PBANKA_1142800 (protein, UniProt A0A509AL90 1-602) MEDKEINNENNNKKDVNKDDDNMQKEDEITKKKTENSEENDLSLAKNVSLGKHLLIGNAVKKGISVSVRGRASNGGLNSKQAGSAWKKKDDKTGDSQGEEKEKKIDDESFPDLLESTEKIKAELVKEKDKKKKQIKDLKKGEENMMNNTFESLDKSKLSDGIFDKQKKMGMNMFDGLKKNDNNTKRWNDYQTNDMDKNSINNMNDNETITGYILPGFKGKHMVGFKCFLKRGMQNPSPSPPSLVYEEVSYFSNIEKSGMQKKFMKLNNQSGQQMNHQMNQQMNQQMNQQMNQQMNQQMNQQMNQQMNQQMNQQMNSSLNNPTINNMMNMHMGYPMNMQMNSPQQRNNHNSVLNNNEEESLNRNNNNINGKFLNEPQHNNQNRFNNNMFKNNNNFNRNSNFFQNKGDDNNAGNGKMMNSGGGMQGNNLNYMKRNDKKEDRGFKKKDIDAEGNWRNAGISNRNDTNDKNNINLTNTNNNGNNRMMRNFGNGNLPGNNKNMFNKNNEDQKNKMYKNNMGNQMANNIGGGHDSFNYSSHNFSNNNNNNNINNENMNDNPNNNKFDYNKNSFNNLNANNKNMNSLDSRKDRMRDVRNINGKNKVNDG
binds		PBANKA_1429100 (protein, UniProt A0A509AUG6 1-112) MNCEKGINIKAEKINGLYAYDEDDVFSNSTLSDVEKSFKFWDGVNNCDIFNIYKEFEDIDDEEETQDKKEKFVTPKLQHSIETNTTGLDNEATAESSNVKTEKNNQSNPELN

These are yes or no findings as the source states them, for the method shown. In cells and extracts the contact can be indirect. Here binding means that the protein was enriched with, or labelled near, the bait; the list need not be complete. Sequences can lack the tags named with a protein.
